Data taken from publication PMC5779714, “Metallochaperone UreG serves as a new target for design of urease inhibitor: A novel strategy for development of antimicrobials” (PLoS Biology, 2018).

Test system: H. pylori cells
Experiment: Ni content of H. pylori cells by ICP-MS
Format: cell-based

Substance: colloidal bismuth subcitrate [CBS]
- Normalized Ni content (%) (CBS 2 μM): 86%
- Normalized Ni content (%) (CBS 5 μM): 74%
- Normalized Ni content (%) (CBS 10 μM): 69%
- Normalized Ni content (%) (CBS 20 μM): 88%
- nickel content of H. pylori cells (CBS supplemented to culture medium): only a slight decline
